# PubChem BioAssay AID1259254 | NCATS – 2017
# Purpose: 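Gene knock-downs that lead to re-replication, shown by excess G2 DNA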 (primary screen)
# System: human HCT116 colorectal cancer cells
# Knock-down reagent: single siRNA against human genes
# Timing: 3 days
# Read-out: 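Nuclei stained with Hoechst and imaged; cell-cycle phase assigned by DNA content; G2 share scaled per plate, non-targeting siRNA 0%, GMNN siRNA 100%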
# Scale: G2 robust z-score and G2 cells, % of GMNN control: higher = more G2 cells, more excess DNA replication; raw share of cells in G2: higher = larger share of cells with G2 DNA content
# Hit rule: 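Active siRNAs have a G2 robust z of 5 or more median absolute deviations over the median, which in these data means about 38% or higher of GMNN control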
# Here is one part, drawn at random, of about 59,000 reagents. In the full data, about 1,550 (2.6%) were called active. 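G2 share is only a proxy for re-replication; each gene was hit by three separate siRNAs, and active genes were retested.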 The raw values are shown without normalisation. The numbers tell different reagents against one gene apart. Not given: the amount of reagent.
gene,reagent,G2 robust z-score,"G2 cells, % of GMNN control",raw share of cells in G2 (%),call
ELK3 (GeneID 2004),1,-0.824,-2.83,4.21,inactive
ELK3 (GeneID 2004),2,-0.836,-2.91,4.15,inactive
ELK3 (GeneID 2004),3,2.63,21.5,11.3,inactive
IQCF2 (GeneID 389123),1,-0.965,-3.82,2.46,inactive
IQCF2 (GeneID 389123),2,0.107,3.72,5.02,inactive
IQCF2 (GeneID 389123),3,-0.834,-2.9,3.39,inactive
DNMT3A (GeneID 1788),1,-0.747,-2.29,3.31,inactive
DNMT3A (GeneID 1788),2,1.55,13.9,9.92,inactive
DNMT3A (GeneID 1788),3,2.15,18.1,11.6,inactive
MAT2A (GeneID 4144),1,-0.393,0.206,5.44,inactive
MAT2A (GeneID 4144),2,-1.06,-4.51,1.71,inactive
MAT2A (GeneID 4144),3,-0.465,-0.302,5.35,inactive
ANOS1 (GeneID 3730),1,-0.825,-2.84,4.01,inactive
ANOS1 (GeneID 3730),2,0.537,6.74,8.25,inactive
ANOS1 (GeneID 3730),3,0.622,7.34,6.89,inactive
ZNF567 (GeneID 163081),1,-0.0332,2.73,4.03,inactive
ZNF567 (GeneID 163081),2,0.595,7.16,5.65,inactive
ZNF567 (GeneID 163081),3,-0.0721,2.46,4.39,inactive
LOC729860 (retired record) (GeneID 729860),1,-0.362,0.418,4.26,inactive
LOC729860 (retired record) (GeneID 729860),2,-0.076,2.43,4.04,inactive
LOC729860 (retired record) (GeneID 729860),3,-0.105,2.23,3.99,inactive
RUBCNL (GeneID 80183),1,-0.549,-0.894,4.07,inactive
RUBCNL (GeneID 80183),2,-0.427,-0.0346,4.29,inactive
RUBCNL (GeneID 80183),3,0.218,4.5,3.61,inactive
TFAP4 (GeneID 7023),1,4.06,31.5,15.8,inactive
TFAP4 (GeneID 7023),2,-0.392,0.211,4.76,inactive
TFAP4 (GeneID 7023),3,-0.676,-1.79,3.55,inactive
RNPEPL1 (GeneID 57140),1,-1.65,-8.63,2.55,inactive
RNPEPL1 (GeneID 57140),2,-0.749,-2.31,4.09,inactive
RNPEPL1 (GeneID 57140),3,1.7,14.9,9.48,inactive
UQCRHL (GeneID 440567),1,-0.746,-2.28,2.74,inactive
UQCRHL (GeneID 440567),2,-0.701,-1.97,2.67,inactive
UQCRHL (GeneID 440567),3,0.0512,3.33,4.25,inactive
IQCE (GeneID 23288),1,0.234,4.62,4.91,inactive
IQCE (GeneID 23288),2,-1.08,-4.65,2.66,inactive
IQCE (GeneID 23288),3,-0.466,-0.309,3.81,inactive
AVPR1A (GeneID 552),1,-0.791,-2.59,4.91,inactive
AVPR1A (GeneID 552),2,-0.667,-1.73,3.91,inactive
AVPR1A (GeneID 552),3,1.29,12.1,6.97,inactive

Continued; the last 8 above are carried over.
gene,reagent,G2 robust z-score,"G2 cells, % of GMNN control",raw share of cells in G2 (%),call
UQCRHL (GeneID 440567),2,-0.701,-1.97,2.67,inactive
UQCRHL (GeneID 440567),3,0.0512,3.33,4.25,inactive
IQCE (GeneID 23288),1,0.234,4.62,4.91,inactive
IQCE (GeneID 23288),2,-1.08,-4.65,2.66,inactive
IQCE (GeneID 23288),3,-0.466,-0.309,3.81,inactive
AVPR1A (GeneID 552),1,-0.791,-2.59,4.91,inactive
AVPR1A (GeneID 552),2,-0.667,-1.73,3.91,inactive
AVPR1A (GeneID 552),3,1.29,12.1,6.97,inactive
PCDHGA10 (GeneID 56106),1,-0.97,-3.86,4.74,inactive
PCDHGA10 (GeneID 56106),2,2.6,21.3,13.2,inactive
PCDHGA10 (GeneID 56106),3,2.7,22,12.3,inactive
TMEM176A (GeneID 55365),1,0.793,8.55,5.86,inactive
TMEM176A (GeneID 55365),2,2.6,21.2,12.7,inactive
TMEM176A (GeneID 55365),3,2.64,21.6,13.1,inactive
AK9 (GeneID 221264),1,0.563,6.93,6.09,inactive
AK9 (GeneID 221264),2,0.979,9.86,6.51,inactive
AK9 (GeneID 221264),3,-0.305,0.821,3.46,inactive
AK9 (GeneID 221264),4,-0.429,-0.0526,3.56,inactive
AK9 (GeneID 221264),5,-0.244,1.25,3.56,inactive
AK9 (GeneID 221264),6,2.48,20.4,9.71,inactive
AK9 (GeneID 221264),7,0.751,8.25,6.81,inactive
AK9 (GeneID 221264),8,-0.665,-1.71,2.84,inactive
AK9 (GeneID 221264),9,1,10,8.95,inactive
LOC729369 (GeneID 729369),1,1.62,14.3,9.43,inactive
LOC729369 (GeneID 729369),2,2.35,19.5,9.6,inactive
LOC729369 (GeneID 729369),3,-0.529,-0.751,2.81,inactive
ARIH2OS (GeneID 646450),1,-0.488,-0.468,3.6,inactive
ARIH2OS (GeneID 646450),2,-0.217,1.44,3.76,inactive
ARIH2OS (GeneID 646450),3,0.0626,3.41,4.13,inactive
PACRGL (GeneID 133015),1,0.785,8.49,7.38,inactive
PACRGL (GeneID 133015),2,0.389,5.7,4.91,inactive
PACRGL (GeneID 133015),3,-0.15,1.91,3.27,inactive
BARX2 (GeneID 8538),1,-0.0296,2.76,5.7,inactive
BARX2 (GeneID 8538),2,-0.73,-2.17,4.5,inactive
BARX2 (GeneID 8538),3,-0.689,-1.88,3.68,inactive
USP35 (GeneID 57558),1,1.94,16.6,11.4,inactive
USP35 (GeneID 57558),2,-1.28,-6.02,2.78,inactive
USP35 (GeneID 57558),3,-0.393,0.206,3.99,inactive
ZCCHC17 (GeneID 51538),1,-1.44,-7.18,1.03,inactive
ZCCHC17 (GeneID 51538),2,0.689,7.82,7.56,inactive
ZCCHC17 (GeneID 51538),3,1.71,15,8.14,inactive
WBP4 (GeneID 11193),1,0.991,9.94,8.88,inactive
WBP4 (GeneID 11193),2,0.506,6.53,6.83,inactive
WBP4 (GeneID 11193),3,2.84,23,11.8,inactive
NTAQ1 (GeneID 55093),1,-0.412,0.0693,4.55,inactive
NTAQ1 (GeneID 55093),2,-0.445,-0.161,4.07,inactive
NTAQ1 (GeneID 55093),3,-0.0241,2.8,4.03,inactive
ZNF571 (GeneID 51276),1,-0.821,-2.81,4.64,inactive
ZNF571 (GeneID 51276),2,0.199,4.37,4.33,inactive
ZNF571 (GeneID 51276),3,3.06,24.5,11.3,inactive
NMB (GeneID 4828),1,-0.837,-2.92,2.23,inactive
NMB (GeneID 4828),2,2.55,20.9,13.4,inactive
NMB (GeneID 4828),3,-1.51,-7.68,2.43,inactive
DCAF1 (GeneID 9730),1,0.807,8.65,9.24,inactive
DCAF1 (GeneID 9730),2,0.855,8.98,7.69,inactive
DCAF1 (GeneID 9730),3,1.16,11.1,7.46,inactive
